We go through 2 sequences from patent US10000534B2 (CAREGEN CO., LTD., priority 2014, dated 2018).

Series [1] in a line: general procedure: Fmoc solid-phase peptide synthesis; chloro trityl chloride resin; HoBt/Bop/DIEA. The settings on record: whole synthesis.
A short description of series [2]: general procedure: Fmoc solid-phase peptide synthesis; chloro trityl chloride resin (CTL resin, Nova Biochem Cat No. 01-64-0021); HoBt/Bop/DIEA. The settings on record: whole synthesis, scale of the general procedure 700 mg of resin.

Ends that are not written are not given here.

For RSLNLRDSQKS, the crude mass in series [1] is recorded as 0.85 g. This sequence displayed a crude yield in series [1] (scale of the general procedure 700 mg of resin) of 89.9%.

In turn, FDMGAYKSSK showed a crude yield in series [2] of 92.1%.
